# Patent US20060045883A1, “Anti-cancer vaccines” (priority 2004, published 2006)
# Some of these results come from one statement about several compounds together.
# System: T2 cells
# Assay: Peptide-specific cytotoxicity of peptide-elicited CTL lines against peptide-loaded T2 cells
# Conditions: E:T 50:1
row,Sequence,specific lysis of T2 cells loaded with irrelevant HTLV-1 tax (aa 11-19) by CTL specific for the peptide [%]
1,RLFPDFFTRV [PR2],< 20
2,KLLLALAGL [MY2],< 20
3,RLFEQVMRI [MY4],< 20
